# Assay results published in PubChem BioAssay AID504834 (National Center for Advancing Translational Sciences (NCATS), 2011).
# In all, about 320,000 compounds went through this assay and about 22,000 (6.9%) were called active. Inconclusive means that the source gave no clear call. Such entries were picked first, then a sample of the others. The call rests on the fitted dose curve; in most records, active means well fitted inhibition curve with a large enough effect; inconclusive means small, poorly fitted or top-dose-only effect, or another doubt; inactive means no such curve, though single readings can be large or run the other way. Potencies beside an inconclusive call are fits to weak or partial responses and may not hold up.
# Experiment: Primary qHTS for delayed death inhibitors of the malarial parasite plastid, 96 hour incubation
# Conditions: P. falciparum luciferase reporter growth; series mostly up to 28.7 µM
# How it was run: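 Two-generation exposure (96 h) targets delayed-death phenotype. Reporter parasites carrying integrated firefly luciferase, in red cells at 2% hematocrit and 0.05% parasitemia final, kept at 37 C, 5% CO2; luminescence loss indicates inhibition.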
# Potency means the concentration at half of the fitted maximal effect.
row,SMILES,Potency
1,O=c1c2ccc(Cl)cc2nc(-c2ccc([N+](=O)[O-])cc2)n1O,"inconclusive: 18.5 µM [inhibitor, single point]"
2,C/C(=N\N=C\c1ccccc1)c1nnn(-c2nonc2N)c1C,inactive
3,CCCc1cc(=O)n(-c2nc3ccccc3s2)[nH]1,inactive
4,COc1cc(CN(C)CCc2ccccn2)cc(OC)c1OC,"inconclusive: 1.47 µM [inhibitor, partial curve, poor fit]"
5,CC(C)C(=O)Nc1ccc(Cc2ccc(NC(=O)C(C)C)c(O)c2)cc1O,inactive
6,Cc1ccc(F)cc1NC(=O)CCNC(=O)c1ccc([N+](=O)[O-])cc1,inactive
7,COc1ccc(CN(C)C(=O)c2ccncc2)c(OC)c1,inactive
8,COc1cccc2cc(C(=O)NCCc3ccccc3)c(=O)oc12,inactive
9,CCO[C@@H]1OC(C(=O)NCc2ccccc2)=C[C@H](c2ccc3c(c2)OCO3)[C@H]1CCCO,inactive
10,Cc1cc2c(c(=O)n1Cc1ccccc1)C1O[C@](CCCCN3C(=O)c4ccccc4C3=O)(Cc3cc(C#N)ccc31)O2,"inconclusive: 1.69 µM [inhibitor, partial curve, poor fit]"
11,Cc1ccc(OC(C)C(=O)Nc2ccccc2C(=O)N2CCOCC2)cc1 (stereo unspecified),inactive
12,CC(C)(C)n1cc(C(=O)c2ccccc2)cc1-c1ccccc1,"inconclusive: 11.7 µM [inhibitor, partial curve, poor fit]"
13,CCOC(=O)c1nn(-c2ccccc2)c(=O)c(C#N)c1C,active: 14.7 µM
14,COc1ccc(-c2nnn(Cc3ccccc3)n2)cc1,active: 13.1 µM
15,C/C(=N\NC(=O)c1ccc(Cn2cc([N+](=O)[O-])cn2)o1)c1cccc(NC(=O)c2cccnc2)c1,active: 4.15 µM
16,CC12CCC(=O)N1C(C(=O)Nc1cc(C(F)(F)F)ccc1N1CCOCC1)CS2 (stereo unspecified),"inconclusive: 13.1 µM [inhibitor, single point]"
17,Cc1cccc(C(C)C)c1NC(=O)Cc1ccc(S(=O)(=O)N2CCOCC2)s1,"inconclusive: 18.5 µM [inhibitor, single point]"
18,CCOc1ccc(NC(=O)C2CCN(S(=O)(=O)c3c(C)noc3C)CC2)cc1,active: 7.38 µM
19,CC1(C)Cc2c(cnn2-c2ccccc2)C(=O)/C1=N\NC(=O)c1ccccc1,"inconclusive: 1.04 µM [inhibitor, partial curve, poor fit]"
20,COc1cccc(CNCC(O)COc2ccc(C(=O)c3ccccc3)cc2)c1 (stereo unspecified),inactive
21,COC(=O)c1c(NC(=O)c2ccccc2F)sc2c1C(C(=O)OC)CC2 (stereo unspecified),inactive
22,CCN(CC)S(=O)(=O)c1cccc(-c2nnc(SCC(=O)NC3CCCCCC3)n2N)c1,"inconclusive: 11.7 µM [inhibitor, single point]"
23,Cc1cc(C)n(CCOc2ccc(Br)cc2)n1,"inconclusive: 13.1 µM [inhibitor, partial curve, poor fit]"
24,Cc1cccc(CSc2nnc([C@@H]3CCCN3C(=O)OC(C)(C)C)o2)c1,"inconclusive: 0.0738 µM [inhibitor, full curve, poor fit]"

# 5 compounds from above, sorted by formula weight, ascending:
row,SMILES,Potency
13,CCOC(=O)c1nn(-c2ccccc2)c(=O)c(C#N)c1C,active: 14.7 µM
7,COc1ccc(CN(C)C(=O)c2ccncc2)c(OC)c1,inactive
2,C/C(=N\N=C\c1ccccc1)c1nnn(-c2nonc2N)c1C,inactive
8,COc1cccc2cc(C(=O)NCCc3ccccc3)c(=O)oc12,inactive
19,CC1(C)Cc2c(cnn2-c2ccccc2)C(=O)/C1=N\NC(=O)c1ccccc1,"inconclusive: 1.04 µM [inhibitor, partial curve, poor fit]"

# Next part:

row,SMILES,Potency
1,CCc1[nH]nc(C(=O)N2CCCC(CO)(Cc3ccc(F)cc3F)C2)c1C (stereo unspecified),inactive
2,COc1ccc(CC(=O)NCCC2=CCCCC2)cc1,inactive
3,Cc1ccc(C)c(OCCCCn2ccnc2)c1,active: 13.1 µM
4,CCN(CC)C1CCN(c2nc3nonc3nc2NCCOC)C1 (stereo unspecified),"inconclusive: 18.5 µM [inhibitor, single point]"
5,O=C(COc1ccc(Cl)cc1)NNC(=O)c1ccccc1C(=O)O,"inconclusive: 16.5 µM [inhibitor, partial curve, poor fit]"
6,CCOC(=O)[C@H]1[C@H]2COc3ccc(C)cc3[C@@H]2N2C(=O)c3cc(Cl)ccc3NC(=O)[C@@]12C,"inconclusive: 18.5 µM [inhibitor, single point]"
7,NC(=O)C1CCN(c2c([N+](=O)[O-])cc(C(F)(F)F)cc2[N+](=O)[O-])CC1,"inconclusive: 20.8 µM [inhibitor, partial curve, poor fit]"
8,CC1CCN(c2ccc3nnc(CCC(=O)N4CCN(c5ccccc5F)CC4)n3n2)CC1,"inconclusive: 18.5 µM [inhibitor, single point]"
9,O=C(c1ccccc1)N1CCN(C2C3CC4CC(C3)CC2C4)CC1 (stereo unspecified),"inconclusive: 13.1 µM [inhibitor, single point]"
10,CC(=O)Nc1ccc(S(=O)(=O)N2CCN(c3cccc(C)c3C)CC2)cc1,"inconclusive: 11.7 µM [inhibitor, single point]"
11,O=c1sc(N2CCN(c3ccccc3F)CC2)nc2ccsc12,"inconclusive: 11.7 µM [inhibitor, single point]"
12,CCOc1cc(C(=O)Nc2cc(C(=O)OC)ccc2C)ccc1OCC(=O)N1CCOCC1,inactive
13,CC(C)c1ccc(OCC(=O)Nc2ccccc2C(=O)N2CCOCC2)cc1,inactive
14,COc1ccc(-c2noc(=O)n2Cc2ccc(C#N)cc2)cc1,"inconclusive: 18.5 µM [inhibitor, single point]"
15,COc1ccc2oc(C(=O)OCC(=O)N(CC(C)C)c3c(N)n(Cc4ccccc4)c(=O)[nH]c3=O)c(C)c2c1,"inconclusive: 11.7 µM [inhibitor, single point]"
16,O=C(NCCOc1ccc(Cl)cc1)c1ccco1,active: 2.08 µM
17,COc1cc(O)oc1C=Nc1ccc(Cl)cc1Cl,inactive
18,COc1cc(/C=N/N=C(\N)c2nonc2N)cc(OC)c1O,inactive
19,COc1cccc(CN2CCN(C3CCN(c4ccccc4C)CC3)CC2CCO)c1 (stereo unspecified),"inconclusive: 0.465 µM [inhibitor, partial curve, poor fit]"
21,Cc1ccc(NC2CCCN(C(=O)c3cccc(-c4ncc[nH]4)c3)C2)cc1C (stereo unspecified),active: 10.4 µM
22,COC(=O)CN1C(=S)N(c2ccc(Cl)cc2)C(=O)C1CC(=O)Nc1ccc(Cl)cc1 (stereo unspecified),inactive
23,CN(c1ccccc1)S(=O)(=O)c1ccc(NC(=O)c2cccs2)cc1,inactive
24,Cc1cc(NCc2ccccc2)c2ccccc2n1,"inconclusive: 1.31 µM [inhibitor, partial curve, poor fit]"

# Single values from above.
# In Potency, `O=C(NCCOc1ccc(Cl)cc1)c1ccco1` is listed with active: 2.08 µM
# In Potency, `C/C(=N\N=C\c1ccccc1)c1nnn(-c2nonc2N)c1C` is listed with inactive

# Continued:

row,SMILES,Potency
1,COCCn1c(SCC(=O)Nc2cccc(F)c2)nc2c(c1=O)SCC2,"inconclusive: 18.5 µM [inhibitor, single point]"
2,O=C(CNC1CCCC1)Nc1cc(Cl)ccc1[N+](=O)[O-],"inconclusive: 18.5 µM [inhibitor, single point]"
3,Cc1ccc(S(=O)(=O)N2CCC(=O)N(CCOCc3ccccc3C)CC2)cc1,"inconclusive: 11.7 µM [inhibitor, single point]"
4,Cc1ccc(/C=C(\C#N)C(=O)Nc2c(C)cccc2C)s1,active: 7.38 µM
5,COc1ccc(/C=N/Nc2ncnc3sc(C)c(C)c23)cc1,inactive
6,O=C(Nc1ccc2oc(=O)ccc2c1)c1ccc(-c2cccc([N+](=O)[O-])c2)o1,"inconclusive: 2.08 µM [inhibitor, partial curve, poor fit]"
7,CCc1nn2c(=O)cc(COc3ccc(/C=C4\C(=N)N5N=C(CC(C)C)SC5=NC4=O)cc3)nc2s1,"inconclusive: 3.7 µM [inhibitor, full curve, poor fit]"
8,C/C(=N\NC(N)=S)c1cc(-c2ccccc2)c(-c2ccccc2)s1,"inconclusive: 18.5 µM [inhibitor, single point]"
9,CCC1CCc2sc(C(=O)NCC3CCCO3)cc2C1 (stereo unspecified),inactive
10,CCN1C(=O)CC(N2CCC(Nc3ccc(F)cc3)CC2)C1=O (stereo unspecified),"inconclusive: 13.1 µM [inhibitor, partial curve, poor fit]"
11,COc1ccc(/C=C/C(=O)c2ccc(OC)cc2O)cc1,inactive
12,COc1ccc(CCNC(=O)c2nonc2N)cc1OC,active: 4.15 µM
13,COCCN(C(=O)COC(=O)CCCOc1ccccc1)c1c(N)n(Cc2ccccc2)c(=O)[nH]c1=O,inactive
14,O=C(NC(=O)c1ccc(Cl)c(Cl)c1)OC1CCS(=O)(=O)C1 (stereo unspecified),"inconclusive: 2.62 µM [inhibitor, full curve, poor fit]"
15,Cc1ccc(O)c(-c2cc(C(=O)NCc3ccccc3)[nH]n2)c1,"inconclusive: 16.5 µM [inhibitor, single point]"
16,O=C(c1ccoc1)N1CCC2(CC1)Oc1ccc(Cl)cc1C(=O)C21CC(c2ccc(Cl)cc2)=NO1 (stereo unspecified),"inconclusive: 18.5 µM [inhibitor, single point]"
17,Cc1nc2ccccc2c(=O)n1NC(=O)Cc1ccc(Br)cc1,inactive
18,COc1ccccc1/C=C/c1nc(S(=O)(=O)c2ccccc2)c(N(C)C)o1,"inconclusive: 20.8 µM [inhibitor, single point]"
19,COc1ccc(Cc2n[nH]c(=S)n2N)cc1OC,"inconclusive: 4.65 µM [inhibitor, full curve, poor fit]"
20,COc1ccccc1N1CCN(C(=O)c2ccc3c(=O)n4c(nc3c2)CCCCC4)CC1,"inconclusive: 13.1 µM [inhibitor, partial curve, poor fit]"
21,c1ccc(-c2noc(CN3CCc4sccc4C3)n2)cc1,"inconclusive: 4.15 µM [inhibitor, partial curve]"
22,O=C(O)C1CC1c1ccc(Br)cc1 (stereo unspecified),"inconclusive: 18.5 µM [inhibitor, single point]"
23,COc1cc(Cl)c(C)cc1NC(=O)CN1CCN(C(=O)C2CC2)CC1,"inconclusive: 6.57 µM [inhibitor, partial curve, poor fit]"
